Results published in US20200232989A1 (UNIVERSITE D'AIX-MARSEILLE, priority 2017, published 2020).
For at least one compound, name, drawing or mass did not settle the structure.

Tests used:
[1] = Survival (PFS, OS) of metastatic ccRCC patients in the prospective cohort (SUVEGIL and TORAVA trials), split by sCD146 variation; format: in vivo, human; details: patients with sCD146 <120%
Description: Eligible patients for SUVEGIL and TORAVA trials were at least 18 years of age and had metastatic clear cell renal cell carcinoma (ccRCC) histologically confirmed, with the presence of measurable disease according to Response Evaluation Criteria in Solid Tumors (RECIST) v1.1. […] Patients were ineligible if they had symptomatic or uncontrolled brain metastases, an estimated lifetime less than 3 months, uncontrolled hypertension or clinically significant cardiovascular events (heart failure, prolongation of the QTinterval), history of other primary cancer. All patients gave written informed consent.
The prospective cohort includes patients from the SUVEGIL and TORAVA trials.
The SUVEGIL trial (clinicaltrial.gov, NCT00943839) was a multicenter prospective single-arm study. […] Courses repeat every 6 weeks in the absence of disease progression or unacceptable toxicity.
The TORAVA trial (clinicaltrial.gov, NCT00619268) was a randomized prospective study. Patient characteristics and results have been previously described (Negrier et al, 2011). […]
The % variation of sCD146 between diagnosis and after 1 cycle of suntinib cut-off point was determined at 120%. […]

CD146 mRNA [2] = experiment: qPCR of CD146 mRNA in tumors from patients treated with sunitinib in a neo-adjuvant setting vs untreated RCC patients; format: in vivo, human
angiomotin (Amot) mRNA = experiment: qPCR of angiomotin mRNA in tumors from patients treated with sunitinib in a neo-adjuvant setting vs untreated RCC patients; format: in vivo, human
angiomotin mRNA [3] = experiment: qPCR of angiomotin mRNA in 786R cells; format: cell-based; details: 5 μM, 48 h
CD146 mRNA [4] = experiment: qPCR of CD146 mRNA in HUVEC; format: cell-based; details: 2 μM, 48 h
angiomotin mRNA [5] = experiment: qPCR of angiomotin mRNA in HUVEC; format: cell-based; details: 2 μM, 48 h
786 cells = experiment: Cell viability/metabolism (XTT) in 786 cells; format: cell-based; details: 2.5 or 5 μM sunitinib, 48 h
Protocol: FIG. 4. […] The mRNA levels of CD146 total (A), long (B) and short forms (C) and angiomotin (E) were evaluated by qPCR. D, sCD146 protein in cell supernatants was evaluated by ELISA. […] The cell metabolism was measured by XTT assay. Results are represented as the mean of three independent experiments±SEM.* p<0.05, ** p<0.01, *** p<0.001.
Fifty microliters of sodium 3′-[1-phenylaminocarbonyl)-3,4-tetrazolium]-bis(4-methoxy-6-nitro) benzene sulfonic acid hydrate (XTT) reagent was added to each well. The assay is based on the cleavage of the yellow tetrazolium salt XTT to form an orange formazan dye by metabolically active cells. The absorbance of the formazan product, reflecting cell viability, was measured at 490 nm. Each assay was performed in quadruplicate.

CD146 mRNA [6] = experiment: qPCR of CD146 mRNA in 786 and 786R cells; details: 2.5 and 5 μM, 48 h

With CCN(CC)CCNC(=O)c1c(C)[nH]c(/C=C2\C(=O)Nc3ccc(F)cc32)c1C [sunitinib] the “median OS” value [1] was “not reached”, the “long isoform CD146 mRNA in tumors” value (CD146 mRNA [2]) was “increase was observed” and the “short isoform CD146 mRNA in tumors” value (CD146 mRNA [2]) was “increase was observed”. For the same compound, the “total CD146 mRNA in tumors” value (CD146 mRNA [2]) was “significantly increased”, the “angiomotin mRNA expression in tumors” value (angiomotin (Amot) mRNA) was “no modification” and the “angiomotin mRNA expression” value (angiomotin mRNA [3]) was “modified”. The “CD146 mRNA” value (CD146 mRNA [4]) was “increase did not occur”, the “angiomotin mRNA expression” value (angiomotin mRNA [5]) was “no modification” and the cell metabolism (786 cells) was “decreased cell metabolism”. For the same compound, the “total CD146 mRNA expression” value (CD146 mRNA [6]; 786 (sunitinib-sensitive) cells) was “not in 786 cells”, the “total CD146 mRNA expression” value (CD146 mRNA [6]; 786R (sunitinib-resistant) cells) was “increased in a dose-dependent manner” and the “long CD146 mRNA” value (CD146 mRNA [6]; 786R cells) was “increase was observed”. The “short CD146 mRNA” value (CD146 mRNA [6]; 786R cells) was “increase was observed”.
